Test results published in PubChem BioAssay AID1487 (National Center for Advancing Translational Sciences (NCATS), 2009).
The list shows a part of the results. Shown are side measurements of this screen, not its main read-out; they come without a call. Most of these compounds were active or inconclusive in the main read-out, so they are no random draw. Potencies come from curve fits of mixed quality, noted in brackets.

Test: qHTS Assay for Modulators of Lamin A Splicing
Settings: HeLa LMNA splicing GFP/RFP minigene ratio, 48 h
Outline: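 S3 HeLa cells stably expressing lamin A-EGFP splicing minigene plus DsRed2, 600 cells/well, 48 h compound exposure at 37C. Laser-scanning cytometry; analysed as GFP (500-530 nm)/RFP (575-640 nm) total intensity ratio; 0.5% DMSO vehicle.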

[1] = measured here: GFP splicing reporter channel
[2] = measured here: RFP viability control channel

For `O=C(c1cc2ccccc2oc1=O)N1CCN(c2ccc(N3CCOCC3)nn2)CC1`, which AC50 [1] is on record?
Its AC50 is 1.12 µM [falling, full curve].

And the AC50 [2]?
Its AC50 is 1.26 µM [falling, full curve, poor fit].

Which AC50 [1] does the source give for `O=C(NCCCl)c1ccc(OCc2ccccc2)cc1Cl` here?
The AC50 was 0.794 µM [rising, full curve, poor fit].

With `COc1ccc(C(=O)/C=C/c2ccc(OC3CSC3)cc2)cc1` as the compound, how does the AC50 [1] read?
Its AC50 is 35.5 µM [falling, single point].

What about the AC50 [2] of the same compound?
The AC50 was 3.98 µM [rising, single point].

With `O=C(c1ccc(N2C(=O)C3C4c5ccccc5C(c5ccccc54)C3C2=O)cc1)N1CCOCC1` (stereo unspecified) as the compound, how does the AC50 [1] read?
Its AC50 is 4.47 µM [rising, partial curve].

For `Cc1ccc(-c2nc(CN(Cc3cnn(C)c3)C(C)C)c(C)o2)o1`, which AC50 [2] is on record?
The AC50 was 0.0562 µM [falling, partial curve, poor fit].

Which AC50 [1] does the source give for `COc1ccc(CNC(=O)Cn2c(SCC(=O)Nc3ccc(OC)cc3)nc3ccccc32)cc1` here?
The AC50 was 35.5 µM [falling, single point].

What about the AC50 [2] of the same compound?
The AC50 was 35.5 µM [falling, single point].

For `COc1cccc(NC(=O)NCCCSC2CCCCC2)c1`, which AC50 [1] is on record?
Its AC50 is 10 µM [rising, partial curve].

And the AC50 [2]?
The AC50 was 12.6 µM [rising, partial curve].

With `COc1ccc(CCC(=O)OCC(=O)c2ccc(C)cc2)cc1` as the compound, how does the AC50 [1] read?
The AC50 was 0.0631 µM [rising, full curve, poor fit].

What about the AC50 [2] of the same compound?
Its AC50 is 10 µM [rising, partial curve, poor fit].

For `COCCN1CCN(c2cc(-c3ccccc3)nc3cc(-c4cccc(F)c4)nn23)CC1`, which AC50 [2] is on record?
Its AC50 is 7.08 µM [rising, partial curve].

For `COc1ccc2c(=O)c(-c3ccc4c(c3)OCO4)coc2c1`, which AC50 [2] is on record?
Its AC50 is 12.6 µM [rising, single point].

Which AC50 [2] does the source give for `CC(=O)Nc1ccc(S(=O)(=O)NCc2ccc(C)cc2)cc1` here?
The AC50 was 14.1 µM [rising, single point].

For `COc1ccc(C(C)C)cc1S(=O)(=O)N1CCN(c2ccccc2)CC1`, which AC50 [1] is on record?
The AC50 was 20 µM [rising, partial curve, poor fit].

With `CC(=O)c1c(C)[nH]c(C(=O)CSc2nnc(-c3ccccc3)o2)c1C` as the compound, how does the AC50 [1] read?
The AC50 was 2.24 µM [rising, full curve].

And the AC50 [2]?
Its AC50 is 3.55 µM [rising, full curve].

For `O=C1c2cccc(OCc3ccc(F)cc3)c2CCN1Cc1ccc(F)cc1`, which AC50 [2] is on record?
Its AC50 is 12.6 µM [rising, partial curve, poor fit].

For `Cc1ccc2nsnc2c1S(=O)(=O)NCc1ccncc1`, which AC50 [2] is on record?
The AC50 was 35.5 µM [rising, single point].
